These are yes or no findings as the source states them, for the method shown. Binding can be weak; no strength is given.
Columns and labels:
[1] = molecular target: Clover-AZIN A325N (human) (UniProt O14977); assay: FRET or BRET; Clover fusion protein constant at 50 nM, mRuby2 fusion of antizyme titrated; TBS pH 7.4 + 0.15% Tween-20, 1 hour at room temperature; plate reader, fit of donor quenching; both purified
[2] = molecular target: Clover-AZIN S329Y (human) (UniProt O14977); assay: as above

By UniProt entry, the sequences of proteins in these tests, tags left out. Where a name states a change or a piece, a line headed by the entry shows the natural chain unless it says otherwise.
UniProt O14977: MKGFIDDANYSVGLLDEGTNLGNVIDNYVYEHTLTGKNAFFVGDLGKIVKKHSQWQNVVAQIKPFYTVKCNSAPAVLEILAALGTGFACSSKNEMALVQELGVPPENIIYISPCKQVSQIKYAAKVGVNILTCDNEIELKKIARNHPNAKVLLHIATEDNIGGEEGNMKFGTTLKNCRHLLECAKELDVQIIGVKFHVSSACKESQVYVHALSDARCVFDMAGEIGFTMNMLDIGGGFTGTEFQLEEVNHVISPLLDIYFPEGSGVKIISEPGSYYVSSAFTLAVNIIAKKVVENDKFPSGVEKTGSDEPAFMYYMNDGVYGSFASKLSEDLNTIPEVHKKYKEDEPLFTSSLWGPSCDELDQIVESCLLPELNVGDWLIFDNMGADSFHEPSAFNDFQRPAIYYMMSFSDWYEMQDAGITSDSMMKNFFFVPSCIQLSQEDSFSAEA
UniProt P54368: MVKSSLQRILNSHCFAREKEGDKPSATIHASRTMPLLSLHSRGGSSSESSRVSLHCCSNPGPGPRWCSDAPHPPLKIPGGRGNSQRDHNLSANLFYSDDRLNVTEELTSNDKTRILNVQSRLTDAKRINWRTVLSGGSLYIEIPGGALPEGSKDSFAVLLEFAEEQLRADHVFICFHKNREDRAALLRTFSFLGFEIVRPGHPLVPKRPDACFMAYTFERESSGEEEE

- binding [1]: binds
- binding [2]: binds
Substance: antizyme-mRuby2 (antizyme with a C-terminal mRuby2 tag) (from UniProt P54368 1-228)
